PubChem BioAssay AID1259425 – University of Nebraska Medical Center – 2018
This is a random part of about 14,000 deposited reagents. Not all columns of the deposit are shown. Not given: the time to read-out.

Test: 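Find knockdowns that reproduce the gene expression pattern seen when KSR1 is lost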 (primary screen)
Cells: HCT116 human colon cancer cells
Reagent: siRNA pool against human genes, 50 nM siRNA
Detection: 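mRNA of six signature genes measured together by branched-DNA assay after 50 nM siRNA pool, blank removed, divided by geometric mean of two housekeeping genes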
Scale: BNIP3L mRNA: higher = more BNIP3L transcript after knockdown

The first 2 records, ahead of the listing:
{"gene knocked down": "CMC2 (GeneID 56942)", "BNIP3L mRNA, set 1": 0.167}
{"gene knocked down": "NACC1 (GeneID 112939)", "BNIP3L mRNA, set 1": 0.175}

The listing, from the start:
{"gene knocked down": "CMC2 (GeneID 56942)", "BNIP3L mRNA, set 1": 0.167}
{"gene knocked down": "NACC1 (GeneID 112939)", "BNIP3L mRNA, set 1": 0.175}
{"gene knocked down": "TUBGCP2 (GeneID 10844)", "BNIP3L mRNA, set 1": 0.104}
{"gene knocked down": "SLC45A4 (GeneID 57210)", "BNIP3L mRNA, set 1": 0.106}
{"gene knocked down": "FAIM2 (GeneID 23017)", "BNIP3L mRNA, set 1": 0.0869}
{"gene knocked down": "NPTX2 (GeneID 4885)", "BNIP3L mRNA, set 1": 0.139}
{"gene knocked down": "NLRP3 (GeneID 114548)", "BNIP3L mRNA, set 1": 0.108}
{"gene knocked down": "MAN1A1 (GeneID 4121)", "BNIP3L mRNA, set 1": 0.0702}
{"gene knocked down": "MYO3A (GeneID 53904)", "BNIP3L mRNA, set 1": 0.0797}
{"gene knocked down": "GALNT4 (GeneID 8693)", "BNIP3L mRNA, set 1": 0.0824}
{"gene knocked down": "POGLUT1 (GeneID 56983)", "BNIP3L mRNA, set 1": 0.264}
{"gene knocked down": "UCP1 (GeneID 7350)", "BNIP3L mRNA, set 1": 0.116}
{"gene knocked down": "GAGE7 (GeneID 2579)", "BNIP3L mRNA, set 1": 0.202}
{"gene knocked down": "ANO2 (GeneID 57101)", "BNIP3L mRNA, set 1": 0.0841}
{"gene knocked down": "TP53BP1 (GeneID 7158)", "BNIP3L mRNA, set 1": 0.0732}
{"gene knocked down": "SULT1A3 (GeneID 6818)", "BNIP3L mRNA, set 1": 0.081}
{"gene knocked down": "DNAJC15 (GeneID 29103)", "BNIP3L mRNA, set 1": 0.135}
{"gene knocked down": "NCKAP1 (GeneID 10787)", "BNIP3L mRNA, set 1": 0.163}
{"gene knocked down": "PRND (GeneID 23627)", "BNIP3L mRNA, set 1": 0.132}
{"gene knocked down": "LUZP1 (GeneID 7798)", "BNIP3L mRNA, set 1": 0.125}
{"gene knocked down": "DNAJC9 (GeneID 23234)", "BNIP3L mRNA, set 1": 0.204}
{"gene knocked down": "PTPN12 (GeneID 5782)", "BNIP3L mRNA, set 1": 0.1}
{"gene knocked down": "NGLY1 (GeneID 55768)", "BNIP3L mRNA, set 1": 0.0435}
{"gene knocked down": "ACOX3 (GeneID 8310)", "BNIP3L mRNA, set 1": 0.104}
{"gene knocked down": "HUWE1 (GeneID 10075)", "BNIP3L mRNA, set 1": 0.0782}
{"gene knocked down": "TULP3 (GeneID 7289)", "BNIP3L mRNA, set 1": 0.05}
{"gene knocked down": "PPP4R1L (GeneID 55370)", "BNIP3L mRNA, set 1": 0.107}
{"gene knocked down": "GBP1 (GeneID 2633)", "BNIP3L mRNA, set 1": 0.114}
